PubChem BioAssay AID1259254 | NCATS, 2017
Aim: 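Gene knock-downs that lead to re-replication, shown by excess G2 DNA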 (primary screen). System: human HCT116 colorectal cancer cells. Knock-down reagent: single siRNA against human genes. Duration: 3 days. Measured: 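Nuclei stained with Hoechst and imaged; cell-cycle phase assigned by DNA content; G2 share scaled per plate, non-targeting siRNA 0%, GMNN siRNA 100%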. Reading the numbers: G2 robust z-score and G2 cells, % of GMNN control: higher = more G2 cells, more excess DNA replication; raw share of cells in G2: higher = larger share of cells with G2 DNA content. Rule for the call: 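Active siRNAs have a G2 robust z of 5 or more median absolute deviations over the median, which in these data means about 38% or higher of GMNN control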.
The deposit covers about 59,000 reagents; this is an unselected part. About 1,550 of all reagents (2.6%) count as active. 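G2 share is only a proxy for re-replication; each gene was hit by three separate siRNAs, and active genes were retested.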 Raw values vary from plate to plate and are shown uncorrected. Unmarked entries are inactive. Not stated in the record: the amount of reagent.

Gene | PubChem SID | G2 robust z-score | G2 cells, % of GMNN control | raw share of cells in G2 (%)
OR5T1 | SID160733251 | 0.249 | 4.72 | 6.66
OR5T1 | SID160766412 | 0.749 | 8.24 | 6.6
OR5T1 | SID160766413 | 2.02 | 17.1 | 10.9
SMG7-AS1 | SID160732980 | 0.207 | 4.42 | 4.61
SMG7-AS1 | SID160763403 | -0.272 | 1.05 | 4.03
SMG7-AS1 | SID160763404 | 1.04 | 10.3 | 7.02
FMR1NB | SID160759665 | -0.185 | 1.67 | 4.2
FMR1NB | SID160759666 | -1.14 | -5.02 | 1.28
FMR1NB | SID160759667 | 2.79 | 22.6 | 9.92
EPHA10 | SID160727980 | -0.532 | -0.777 | 5.35
EPHA10 | SID160727981 | -0.524 | -0.722 | 4.93
EPHA10 | SID160727982 | 1.35 | 12.4 | 7.67
FARSB | SID160774866 | -0.176 | 1.73 | 5.45
FARSB | SID160774877 | 0.0569 | 3.37 | 6.48
FARSB | SID160774888 | 0.188 | 4.29 | 4.66
SLC35D1 | SID160735613 | -0.0976 | 2.28 | 5.88
SLC35D1 | SID160735614 | -0.547 | -0.879 | 3.77
SLC35D1 | SID160735615 | -0.233 | 1.33 | 3.67
EXTL2 | SID160762649 | -0.822 | -2.81 | 2.66
EXTL2 | SID160762659 | -0.755 | -2.34 | 4.39
EXTL2 | SID160762671 | 2.25 | 18.8 | 12.4
SLC25A16 | SID160719577 | 0.309 | 5.14 | 6.17
SLC25A16 | SID160719578 | -0.12 | 2.12 | 6.5
SLC25A16 | SID160719580 | 4.41 | 34 | 16.9
JAK1 | SID160776072 | 1.89 | 16.2 | 11
JAK1 | SID160776073 | -0.267 | 1.09 | 5.78
JAK1 | SID160776074 | -0.855 | -3.05 | 2.95
IL4 | SID160775706 | 2.27 | 18.9 | 11.1
IL4 | SID160775709 | -0.536 | -0.802 | 4.75
IL4 | SID160775710 | 1.58 | 14.1 | 11
LARP1B | SID160743019 | -0.896 | -3.34 | 3.24
LARP1B | SID160743020 | -0.445 | -0.163 | 4.07
LARP1B | SID160743021 | 0.575 | 7.01 | 5.37

Next part; the last 2 above are carried over.
Gene | PubChem SID | G2 robust z-score | G2 cells, % of GMNN control | raw share of cells in G2 (%)
LARP1B | SID160743020 | -0.445 | -0.163 | 4.07
LARP1B | SID160743021 | 0.575 | 7.01 | 5.37
WDR75 | SID160751756 | 0.0206 | 3.11 | 5.14
WDR75 | SID160751757 | 0.127 | 3.86 | 4.6
WDR75 | SID160751758 | 1.5 | 13.6 | 6.52
ZNF34 | SID160750563 | 0.074 | 3.49 | 4.02
ZNF34 | SID160750565 | 3.32 | 26.3 | 17.8
ZNF34 | SID160750566 | -1.1 | -4.77 | 2.14
ITLN2 | SID160757974 | 1.01 | 10 | 10.7
ITLN2 | SID160757975 | 0.713 | 7.98 | 7.62
ITLN2 | SID160757976 | -0.165 | 1.81 | 5.46
NEK7 | SID160757805 | 9.25 (active) | 68 | 26.8
NEK7 | SID160757806 | 3.51 | 27.6 | 15.2
NEK7 | SID160757807 | -0.348 | 0.521 | 3.85
HMGN3 | SID160721943 | -0.5 | -0.551 | 4.29
HMGN3 | SID160721944 | 0.757 | 8.29 | 7.68
HMGN3 | SID160721945 | 0.302 | 5.09 | 7.05
FCRL4 | SID160751097 | 0.234 | 4.61 | 6.49
FCRL4 | SID160751098 | 0.339 | 5.35 | 7.66
FCRL4 | SID160751099 | 0.173 | 4.19 | 5.71
H2AC6 | SID160719875 | 2.55 | 20.9 | 14.4
H2AC6 | SID160724136 | -0.634 | -1.5 | 3.3
H2AC6 | SID160724137 | 6.35 (active) | 47.7 | 20.2
KANSL1 | SID160732961 | -1.04 | -4.36 | 1.94
KANSL1 | SID160763132 | 0.0719 | 3.47 | 4.91
KANSL1 | SID160763133 | 0.164 | 4.12 | 4.64
SLC23A2 | SID160723555 | 0.677 | 7.73 | 5.84
SLC23A2 | SID160723556 | -0.565 | -1.01 | 4.34
SLC23A2 | SID160723557 | 0.47 | 6.28 | 7.58
GBP5 | SID160755201 | 1.35 | 12.5 | 11.5
GBP5 | SID160755202 | 1.7 | 14.9 | 11.4
GBP5 | SID160755204 | -0.825 | -2.84 | 3.41
ZNF578 | SID160758533 | -0.325 | 0.678 | 3.32
ZNF578 | SID160758534 | -0.857 | -3.07 | 2.1
ZNF578 | SID160758535 | -0.392 | 0.211 | 3.6
EYA2 | SID160762740 | -0.805 | -2.7 | 4.26
EYA2 | SID160762751 | 1.34 | 12.4 | 9.98
EYA2 | SID160762762 | -0.619 | -1.39 | 3.16
